In patent US20150182605A1, “Ultra-Low Dose Lysostaphin for Treating MRSA” (priority 2013, published 2015):
Some entries share one result that the patent states for a list of compounds.

Tested on: SA5 (ATCC 49521)
Assay: Effect of antibiotics and lysostaphin on growth of SA5 (% T, 96-well)
Format: cell-based, Staphylococcus aureus
Details: antibiotic at either concentration (25 or 12.5 mg/ml) together with lysostaphin 0.0123 units/ml, 22 hours
Experimental: It was determined whether low levels of lysostaphin would act synergistically with Nafcillin or Oxacillin to kill an SA5 (ATCC 49521). The study was performed in a 96-well dish to allow titration of lysostaphin and antibiotics. The end point was % T. Plating of bacteria from the assay plate was not done.
Fifty μl of SA5 (ATCC 49521) was reconstituted from a frozen stock and grown overnight on a blood agar plate at 37° C. Bacteria were transferred from the blood agar plate (approximately 25% of the lawn) into 30 mls of TSB and grown for 2 hours at 37° C. on a rotating shaker set at 250 rpm. […] A 1:4 dilution of this suspension in TSB gave a % T of ˜50% in a 96 well dish.
For the assay, lysostaphin (Sigma Cat L7386; lot 063M4011V; 3387.5 units/ml stock in water) was diluted in three-fold dilutions (in TSB) from 3 units/ml (row A) to 0.0123 units/ml (row G) in 50 μl/well. The wells in row H received TSB alone. This plate was designated the assay plate. […]
Fifty μl of the antibiotic solutions were transferred to the corresponding wells of the assay plate containing the lysostaphin solution. […] The % T was then determined at 2 and 15 minutes after addition of the bacteria, and again at 5 hours and 22 hours after addition of the bacteria.

Compound	% T
CCOc1ccc2ccccc2c1C(=O)N[C@@H]1C(=O)N2[C@@H]1SC(C)(C)[C@@H]2C(=O)O [Nafcillin, reference compound]	over 98%
Cc1onc(-c2ccccc2)c1C(=O)N[C@@H]1C(=O)N2[C@@H]1SC(C)(C)[C@@H]2C(=O)O [Oxacillin, reference compound]	over 98%
